In doi:10.1101/541656:
Results are given in words; binding and its absence hold for the method and conditions named. In cells and extracts the contact can be indirect. These calls come from enrichment with a bait or labelling near it, and not all partners need be listed.

Protein sequences, listed by entry. Tags and fused reporters are not part of them. Lines headed by an entry give the natural chain unless they say otherwise; changes in a name come on top.
UniProt P43487: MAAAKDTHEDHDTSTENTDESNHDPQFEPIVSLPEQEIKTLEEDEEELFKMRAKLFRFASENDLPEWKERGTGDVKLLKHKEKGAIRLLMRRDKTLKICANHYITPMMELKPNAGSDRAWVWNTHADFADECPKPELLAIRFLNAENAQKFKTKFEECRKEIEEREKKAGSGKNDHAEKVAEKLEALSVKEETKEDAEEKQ
UniProt P18754: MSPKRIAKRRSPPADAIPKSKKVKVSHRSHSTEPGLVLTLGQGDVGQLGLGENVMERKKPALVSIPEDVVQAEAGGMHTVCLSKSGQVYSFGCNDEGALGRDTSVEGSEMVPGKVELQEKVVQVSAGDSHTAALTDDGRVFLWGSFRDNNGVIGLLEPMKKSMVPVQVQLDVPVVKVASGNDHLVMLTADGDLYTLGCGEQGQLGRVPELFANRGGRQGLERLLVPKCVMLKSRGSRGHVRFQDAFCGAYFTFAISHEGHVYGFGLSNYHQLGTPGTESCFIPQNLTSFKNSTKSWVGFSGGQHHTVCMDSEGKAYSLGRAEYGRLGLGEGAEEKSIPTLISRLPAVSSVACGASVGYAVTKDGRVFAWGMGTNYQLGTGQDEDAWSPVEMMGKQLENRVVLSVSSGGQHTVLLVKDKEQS

Key:
[1] = target: RANBP1 S60E mutant, 3xFLAG tagged (human) (UniProt P43487); assay: affinity purification with mass spectrometry
[2] = target: RAN Binding Protein 1 (RANBP1) WT, 3xFLAG tagged (human) (UniProt P43487); assay: affinity purification with mass spectrometry

RCC1 (from UniProt P18754 1-421) was tested, and the binding [1] was “binds” and the binding [2] was “binds”.

B1: NEMP1 (protein, UniProt O14524 44-444)
chain: ETDVNVVMLQESQVCEKRASQQFCYTNVLIPKWHDIWTRIQIRVNSSRLVRVTQVENEEKLKELEQFSIWNFFSSFLKEKLNDTYVNVGLYSTKTCLKVEIIEKDTKYSVIVIRRFDPKLFLVFLLGLMLFFCGDLLSRSQIFYYSTGMTVGIVASLLIIIFILSKFMPKKSPIYVILVGGWSFSLYLIQLVFKNLQEIWRCYWQYLLSYVLTVGFMSFAVCYKYGPLENERSINLLTWTLQLMGLCFMYSGIQIPHIALAIIIIALCTKNLEHPIQWLYITCRKVCKGAEKPVPPRLLTEEEYRIQGEVETRKALEELREFCNSPDCSAWKTVSRIQSPKRFADFVEGSSHLTPNEVSVHEQEYGLGSIIAQDEIYEEASSEEEDSYSRCPAITQNNFLT
B1 was tested, and the binding [1] was “binds” and the binding [2] was “binds”.
